Experimental data reported in the supplement of paper PMC7877785.
± gives the uncertainty stated by the source. The uncertainty is large for many entries.

Assay: self-splicing fitness, log relative to wild type (ln ratio); higher = more splicing; Tetrahymena group I intron in knt gene, E. coli kanamycin selection, DiMSum; sequences stand for … in CUCUCU…GGAGGGAAAAGUUAUCAGGCAUGCACCUGGUAGCUAGUCUUUAAACCAAUAGAUUGCAUCGGUUUAAAAGGCAAGACCGUCAAAUUGCGGGAAAGGGGUCAACAGCCGUUCAGUACCAAGUCUCAGGGGAAACUUUGAGAUGGCCUUGCAAAGGGUAUGGUAAUAAGCUGACGGACAUGGUCCUAACCACGCAGCCAAGUCCUAAGUCAACAGAUCUUCUGUUGAUAUGGAUGCAGUUCACAGACUAAAUGUCGGUCGGGGAAGAUGUAUUCUUCUCAUAAGAUAUAGUCGGACCUCUCCUUAAUGGGAGCUAGCGGAUGAAGUGAUGCAACACUGGAGCCGCUGGGAACUAAUUUGUAUGCGAAAGUAUAUUGAUUAGUUUUGGAGUACUCGUGGUCG
Method in brief: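 Fitness was computed with DiMSum as the error-weighted combination of replicate fold changes, kanamycin versus none, each normalised to wild type. The library randomised all eight intron nucleotides of the P1ex region, with the intron placed in the knt kanamycin-resistance gene on pET-22b(+) in E. coli BL21(DE3). Six replicate transformations were grown overnight at 37°C or 30°C on LB agar with or without 25 μg/mL kanamycin, plus 100 μg/mL carbenicillin, 50 μM IPTG and 0.2% rhamnose. Pooled colonies were amplicon-sequenced on an Illumina HiSeq 2500.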

Sequence | self-splicing fitness (ln) (30 °C) | self-splicing fitness (ln) (37 °C)
GUCAAGCAAUAUUACGACCA | -3.2 ± 0.67 | -2.27 ± 0.55
GACGAGCAAUAUUACGUAAA |  | -2.71 ± 0.54
UUGGAGCAAUAUUACGUUCC | -2.62 ± 1.1 | 
CCAAAGCAAUAUUACGGCCC |  | -2.72 ± 0.54
GACGAGCAAUAUUACGCCGU |  | -4.66 ± 0.72
GGCGAGCAAUAUUACGCCGC | -3.21 ± 0.76 | -2.91 ± 0.62
UUGUAGCAAUAUUACGAAGA |  | -3.17 ± 0.6
UUGGAGCAAUAUUACGGAGC |  | -1.85 ± 0.66
CGGCAGCAAUAUUACGCUUC | -2.87 ± 1.1 | 
CUGGAGCAAUAUUACGAGCC | -2.48 ± 1.1 | 
AGCGAGCAAUAUUACGCUAC | -3.34 ± 1.1 | -1.98 ± 0.52
CCUAAGCAAUAUUACGGUCC | -3.64 ± 1 | 
CCGUAGCAAUAUUACGCCCU | -1.79 ± 0.87 | -2.86 ± 1.1
UCGAAGCAAUAUUACGAACU | -2.74 ± 0.78 | -2.27 ± 0.64
CGCUAGCAAUAUUACGCCUC | -1.84 ± 0.56 | -1.98 ± 0.65
CUCGAGCAAUAUUACGAGGA |  | -2.7 ± 0.62
CCUCAGCAAUAUUACGGCCC |  | -2.72 ± 1.1
GGUUAGCAAUAUUACGUAAC |  | -1.39 ± 1.2
UACUAGCAAUAUUACGUACG | -2.76 ± 0.1 | -1.31 ± 0.091
CGUGAGCAAUAUUACGGGAA | -3.47 ± 1 | 
AGAGAGCAAUAUUACGCUGU | -4.09 ± 0.73 | 
CACGAGCAAUAUUACGACCC |  | -1.07 ± 0.61

Sequence | self-splicing fitness (ln) (30 °C) | self-splicing fitness (ln) (37 °C)
AUCUAGCAAUAUUACGUUUA | -2.26 ± 0.13 | -2.3 ± 0.13
GACAAGCAAUAUUACGUACG | -1.82 ± 0.077 | -0.508 ± 0.091
UUGGAGCAAUAUUACGAAAC | -3.88 ± 0.76 | 
CAUGAGCAAUAUUACGUCGA |  | -1.54 ± 0.69
UGUGAGCAAUAUUACGUGUC | -4.09 ± 1 | 
GGCUAGCAAUAUUACGCCCC | -2.94 ± 1.1 | -1.74 ± 0.82
CGGAAGCAAUAUUACGCGGC | -3.5 ± 1 | -2.07 ± 1.1
CGGAAGCAAUAUUACGCUCU | -3.78 ± 0.53 | 
CCAGAGCAAUAUUACGGACA |  | -1.22 ± 0.6
AGUAAGCAAUAUUACGUGUA | -2.16 ± 0.12 | -1.8 ± 0.13
GUGAAGCAAUAUUACGCCGG |  | -0.555 ± 0.7
ACAUAGCAAUAUUACGUCUC | -4.39 ± 0.51 | 
UUGUAGCAAUAUUACGCUGU | -3.02 ± 0.35 | -2.49 ± 0.27
AGGGAGCAAUAUUACGUAAU | -3.64 ± 0.53 | 
GCCGAGCAAUAUUACGCCCG | -2.68 ± 0.26 | -2.41 ± 0.56
AAUGAGCAAUAUUACGGACA |  | -3.28 ± 0.73
GGAGAGCAAUAUUACGAACG | -3.92 ± 1 | -0.691 ± 0.71
UGUCAGCAAUAUUACGCUGC | -3.54 ± 0.43 | -0.934 ± 0.25
AAUAAGCAAUAUUACGGAUG | -2.21 ± 0.1 | -1.39 ± 0.1
UGCGAGCAAUAUUACGCGCA |  | -1.26 ± 0.64
CCGGAGCAAUAUUACGCCAA | -1.96 ± 0.87 | 

Part of the list above, as tab-separated lines:
Sequence	self-splicing fitness (ln) (30 °C)	self-splicing fitness (ln) (37 °C)
CCAGAGCAAUAUUACGGACA		-1.22 ± 0.6
AGUAAGCAAUAUUACGUGUA	-2.16 ± 0.12	-1.8 ± 0.13
